Results deposited as PubChem BioAssay AID1508588 (Peter MacCallum Cancer Centre, 2020)

Assay: 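Genome-wide search for knock-downs that heighten vemurafenib action in melanoma cells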 (primary screen)
Cell system: human WM266.4 melanoma cells (BRAF V600 mutant)
Reagent: siRNA pool against human genes, 40 nM
Timing: 96 h from transfection to read-out
Treatment: vemurafenib 300 nM (about IC25), added 48 h after transfection, for 48 h; comparison arm got DMSO vehicle only
Measurement: 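Cell gain (DAPI nuclei at end minus before drug, mean of two replicates) and medium lactate by absorbance per cell, both as ratio to non-targeting siRNA, also grouped into fold-change classes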
Direction: cell gain with vemurafenib: higher = more cell gain than with non-targeting siRNA; lactate per cell with vemurafenib: higher = more lactate made per cell
Call rule: 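Enhancement is called by pairing each knock-down's vehicle-arm and drug-arm fold-change classes for viability or glycolysis; which class combinations qualify is not given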
Meaning of the calls: active = enhances vemurafenib effect; inactive = no enhancement seen
This is one part, drawn at random, of about 18,000 reagents tested. In the full data, 790 (4.4%) are marked active. 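Calls rest on a combination of fold-change classes in drug and vehicle arms, not all shown here.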 Unmarked entries are inactive.

gene knocked down,cell gain with vemurafenib,lactate per cell with vemurafenib
OAS2 (2'-5'-oligoadenylate synthetase 2),0.61,1
"LAMTOR4 (late endosomal/lysosomal adaptor, MAPK and MTOR activator 4)",0.87,0.68
SCAND3 (SCAN domain containing 3),0.92,0.82
ZNF429 (zinc finger protein 429),0.88,0.66
TXNDC9 (thioredoxin domain containing 9),0.16,-0.18
CRACDL (CRACD like),0.97,0.64
CEP95 (centrosomal protein 95),0.61,0.8
SNX11 (sorting nexin 11),0.6,1.25
HSPB2 (heat shock protein family B (small) member 2),0.35,1.33
HCG27 (HLA complex group 27),0.87,0.32
MC1R (melanocortin 1 receptor),1,0.83
FLACC1 (flagellum associated containing coiled-coil domains 1),0.87,1.23
BBS7 (Bardet-Biedl syndrome 7),0.36,0.88
RPL8 (ribosomal protein L8),-0.07,2.33
C1QTNF7 (C1q and TNF related 7),0.22,1.1
TRIP4 (thyroid hormone receptor interactor 4),0.09,1.91
"METTL2A (methyltransferase 2A, tRNA N3-cytidine)",0.37,2.1
CAPZA2 (capping actin protein of muscle Z-line subunit alpha 2),0.89,0.74
ACTL10 (actin like 10),0.01,1.94
SIRT2 (sirtuin 2),0.33,1.65
KRTAP9-4 (keratin associated protein 9-4),0.4,1.63
SSTR3 (somatostatin receptor 3),0.45,2.8
HTR1B (5-hydroxytryptamine receptor 1B),0.67,0.57

In a second layout: results already given.
gene knocked down	cell gain with vemurafenib	lactate per cell with vemurafenib
METTL2A (methyltransferase 2A, tRNA N3-cytidine)	0.37	2.1
CAPZA2 (capping actin protein of muscle Z-line subunit alpha 2)	0.89	0.74
ACTL10 (actin like 10)	0.01	1.94
SIRT2 (sirtuin 2)	0.33	1.65
KRTAP9-4 (keratin associated protein 9-4)	0.4	1.63
SSTR3 (somatostatin receptor 3)	0.45	2.8

Additional reagents follow:
gene knocked down,cell gain with vemurafenib,lactate per cell with vemurafenib
MTFR1L (mitochondrial fission regulator 1 like),0.33,1.25
DHX37 (DEAH-box helicase 37),0.75,0.74
APBB3 (amyloid beta precursor protein binding family B member 3),1.1,1
WDR72 (WD repeat domain 72),0.95,0.72
RNF20 (ring finger protein 20),1.39,0.74
TPRKB (TP53RK binding protein),0.59,0.78
SPINK6 (serine peptidase inhibitor Kazal type 6),0.25,1.19
ESRP1 (epithelial splicing regulatory protein 1),0.58,1.51
KIF22 (kinesin family member 22),0.52,1.35
SDC2 (syndecan 2),0.37,2
DHRS12 (dehydrogenase/reductase 12),0.98,0.77
DCUN1D4 (defective in cullin neddylation 1 domain containing 4),0.72,1.03
APOBEC3D (apolipoprotein B mRNA editing enzyme catalytic subunit 3D),0.32,0.56
BTNL2 (butyrophilin like 2),0.3,0.79
DLX3 (distal-less homeobox 3),0.84,0.6
DCTD (dCMP deaminase),0.82,0.53
"NT5M (5',3'-nucleotidase, mitochondrial)",0.26,2.32
GOT2 (glutamic-oxaloacetic transaminase 2),0.76,1.52
HOXC11 (homeobox C11),0.51,0.72
UBAP2 (ubiquitin associated protein 2),0.33,2.15
NRN1 (neuritin 1),0.28,1.74
GLRA2 (glycine receptor alpha 2),0.59,0.72
TMEM258 (transmembrane protein 258),0.34,1.98
ENHO (energy homeostasis associated),0.59,1.02
RFPL4A (ret finger protein like 4A),1.02,0.73
"GUCY2D (guanylate cyclase 2D, retinal)",0.14,0.55
"MRTO4 (MRT4 homolog, ribosome maturation factor)",0.69,1.02
LAS1L (LAS1 like ribosome biogenesis factor),0.96,0.52
SLC35A4,0.79,0.59
"ENDOU (endonuclease, poly(U) specific)",0.96,0.96
MAPK8 (mitogen-activated protein kinase 8),0.8,1.29
TAMALIN (trafficking regulator and scaffold protein tamalin),0.84,0.5
ZNF451 (zinc finger protein 451),0.46,1.93
DCUN1D1 (defective in cullin neddylation 1 domain containing 1),0.75,0.7
